Laboratory results reported in paper PMC4985585.
These are yes or no findings as the source states them, for the method shown. Binding seen in cells or lysates may run through a third protein. A yes stands for co-enrichment or nearness to the bait. Other partners may have been found.

Sequences of proteins named here, by UniProt entry; tags and fusion partners are left off. Residues count along the entry.
UniProt Q9ERK7: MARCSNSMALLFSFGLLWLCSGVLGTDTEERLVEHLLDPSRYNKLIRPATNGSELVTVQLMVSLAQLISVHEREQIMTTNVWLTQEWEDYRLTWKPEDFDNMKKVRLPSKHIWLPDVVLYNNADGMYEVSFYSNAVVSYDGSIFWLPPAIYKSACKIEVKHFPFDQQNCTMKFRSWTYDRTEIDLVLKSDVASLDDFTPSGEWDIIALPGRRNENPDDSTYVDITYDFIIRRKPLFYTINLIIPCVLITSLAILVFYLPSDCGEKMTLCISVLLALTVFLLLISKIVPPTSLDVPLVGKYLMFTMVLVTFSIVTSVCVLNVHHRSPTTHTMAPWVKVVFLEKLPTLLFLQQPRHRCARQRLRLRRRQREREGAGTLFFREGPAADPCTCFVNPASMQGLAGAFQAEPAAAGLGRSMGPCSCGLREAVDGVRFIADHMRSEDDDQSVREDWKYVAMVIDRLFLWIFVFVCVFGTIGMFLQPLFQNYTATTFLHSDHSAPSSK
UniProt P17787, residues 26-502: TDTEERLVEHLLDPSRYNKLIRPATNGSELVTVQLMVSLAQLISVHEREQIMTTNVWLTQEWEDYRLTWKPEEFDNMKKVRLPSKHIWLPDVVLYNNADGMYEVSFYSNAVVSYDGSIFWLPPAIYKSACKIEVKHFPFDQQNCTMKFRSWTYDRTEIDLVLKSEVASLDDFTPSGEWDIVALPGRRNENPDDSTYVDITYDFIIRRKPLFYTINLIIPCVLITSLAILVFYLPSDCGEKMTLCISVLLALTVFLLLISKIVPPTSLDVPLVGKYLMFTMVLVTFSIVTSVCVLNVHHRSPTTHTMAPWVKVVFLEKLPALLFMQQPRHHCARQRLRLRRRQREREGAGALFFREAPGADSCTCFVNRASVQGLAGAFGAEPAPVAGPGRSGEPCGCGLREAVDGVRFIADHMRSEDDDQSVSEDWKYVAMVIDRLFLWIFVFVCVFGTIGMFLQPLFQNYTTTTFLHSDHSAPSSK
UniProt P61266: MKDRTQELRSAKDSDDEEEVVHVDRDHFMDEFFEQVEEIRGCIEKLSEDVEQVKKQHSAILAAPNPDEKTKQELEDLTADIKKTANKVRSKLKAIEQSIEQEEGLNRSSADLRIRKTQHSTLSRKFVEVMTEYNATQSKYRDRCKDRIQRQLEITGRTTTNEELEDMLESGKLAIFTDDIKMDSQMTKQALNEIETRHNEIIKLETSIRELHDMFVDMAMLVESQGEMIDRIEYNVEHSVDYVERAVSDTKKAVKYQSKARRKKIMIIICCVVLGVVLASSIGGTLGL
UniProt P04350: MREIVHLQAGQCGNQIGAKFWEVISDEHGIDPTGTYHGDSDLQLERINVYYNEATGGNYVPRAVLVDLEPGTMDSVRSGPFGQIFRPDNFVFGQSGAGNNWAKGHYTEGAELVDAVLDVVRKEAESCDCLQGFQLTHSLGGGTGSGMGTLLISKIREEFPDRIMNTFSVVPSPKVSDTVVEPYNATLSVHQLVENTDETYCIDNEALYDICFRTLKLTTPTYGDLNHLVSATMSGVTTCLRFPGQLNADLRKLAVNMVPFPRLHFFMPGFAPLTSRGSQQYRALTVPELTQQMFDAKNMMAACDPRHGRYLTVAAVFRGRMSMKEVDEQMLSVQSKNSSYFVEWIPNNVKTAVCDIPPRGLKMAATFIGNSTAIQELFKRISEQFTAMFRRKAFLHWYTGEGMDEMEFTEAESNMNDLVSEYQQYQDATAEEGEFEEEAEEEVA
UniProt O15020: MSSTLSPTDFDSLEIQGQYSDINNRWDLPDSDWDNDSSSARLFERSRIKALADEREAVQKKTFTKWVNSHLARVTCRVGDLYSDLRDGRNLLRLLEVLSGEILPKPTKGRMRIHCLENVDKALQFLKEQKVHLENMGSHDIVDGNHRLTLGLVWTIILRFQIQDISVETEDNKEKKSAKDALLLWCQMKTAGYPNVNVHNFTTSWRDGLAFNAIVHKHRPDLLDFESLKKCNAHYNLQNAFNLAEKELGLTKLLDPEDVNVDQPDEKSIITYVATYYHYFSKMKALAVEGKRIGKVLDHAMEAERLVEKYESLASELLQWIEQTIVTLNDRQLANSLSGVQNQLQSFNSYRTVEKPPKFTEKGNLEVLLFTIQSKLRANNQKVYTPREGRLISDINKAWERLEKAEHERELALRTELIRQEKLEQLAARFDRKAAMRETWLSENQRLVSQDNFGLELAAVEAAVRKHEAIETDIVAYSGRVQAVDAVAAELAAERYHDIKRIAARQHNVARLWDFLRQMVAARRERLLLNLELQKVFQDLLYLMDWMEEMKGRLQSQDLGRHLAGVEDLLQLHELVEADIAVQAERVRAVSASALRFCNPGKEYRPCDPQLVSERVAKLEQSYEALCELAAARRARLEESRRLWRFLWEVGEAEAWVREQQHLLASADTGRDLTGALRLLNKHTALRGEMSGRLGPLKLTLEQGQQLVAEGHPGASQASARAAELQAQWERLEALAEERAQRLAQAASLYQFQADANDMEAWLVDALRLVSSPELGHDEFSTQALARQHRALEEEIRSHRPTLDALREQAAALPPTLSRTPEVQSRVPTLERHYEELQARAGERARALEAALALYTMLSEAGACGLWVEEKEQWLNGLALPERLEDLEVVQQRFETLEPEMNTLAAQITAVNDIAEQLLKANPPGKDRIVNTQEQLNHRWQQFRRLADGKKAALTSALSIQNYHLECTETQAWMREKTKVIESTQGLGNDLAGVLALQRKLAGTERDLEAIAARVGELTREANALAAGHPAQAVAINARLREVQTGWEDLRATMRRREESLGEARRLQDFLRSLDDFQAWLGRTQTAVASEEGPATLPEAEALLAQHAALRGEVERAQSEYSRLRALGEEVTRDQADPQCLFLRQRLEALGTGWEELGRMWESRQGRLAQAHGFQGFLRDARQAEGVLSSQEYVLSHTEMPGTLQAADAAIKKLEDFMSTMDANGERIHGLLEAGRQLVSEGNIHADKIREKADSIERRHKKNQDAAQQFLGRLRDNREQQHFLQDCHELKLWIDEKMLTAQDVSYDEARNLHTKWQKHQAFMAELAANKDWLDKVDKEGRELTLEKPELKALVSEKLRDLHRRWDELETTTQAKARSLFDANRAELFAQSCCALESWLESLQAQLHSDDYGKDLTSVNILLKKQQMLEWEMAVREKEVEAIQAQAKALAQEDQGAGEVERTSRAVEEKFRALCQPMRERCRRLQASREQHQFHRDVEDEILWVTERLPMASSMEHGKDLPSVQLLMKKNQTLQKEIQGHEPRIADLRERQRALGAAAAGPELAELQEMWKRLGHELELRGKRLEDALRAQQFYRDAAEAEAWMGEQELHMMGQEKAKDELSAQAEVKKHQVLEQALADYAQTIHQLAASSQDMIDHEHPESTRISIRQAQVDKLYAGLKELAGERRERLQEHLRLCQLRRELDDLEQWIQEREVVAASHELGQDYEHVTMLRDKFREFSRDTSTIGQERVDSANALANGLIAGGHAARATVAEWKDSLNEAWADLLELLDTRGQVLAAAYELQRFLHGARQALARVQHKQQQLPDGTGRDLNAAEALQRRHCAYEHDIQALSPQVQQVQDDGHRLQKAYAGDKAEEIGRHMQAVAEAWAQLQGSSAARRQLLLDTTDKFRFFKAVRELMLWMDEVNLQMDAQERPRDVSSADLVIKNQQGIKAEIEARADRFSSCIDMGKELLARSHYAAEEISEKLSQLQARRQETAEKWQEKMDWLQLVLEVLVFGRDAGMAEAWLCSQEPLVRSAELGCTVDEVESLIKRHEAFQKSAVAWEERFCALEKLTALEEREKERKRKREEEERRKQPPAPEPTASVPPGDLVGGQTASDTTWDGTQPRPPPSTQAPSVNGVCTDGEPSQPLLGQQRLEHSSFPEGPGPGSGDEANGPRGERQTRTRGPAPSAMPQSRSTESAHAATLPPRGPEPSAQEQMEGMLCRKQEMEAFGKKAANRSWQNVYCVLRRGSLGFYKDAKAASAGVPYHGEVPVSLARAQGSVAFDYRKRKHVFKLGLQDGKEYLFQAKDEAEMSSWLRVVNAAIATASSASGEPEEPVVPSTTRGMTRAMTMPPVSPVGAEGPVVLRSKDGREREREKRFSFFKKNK
UniProt P07437: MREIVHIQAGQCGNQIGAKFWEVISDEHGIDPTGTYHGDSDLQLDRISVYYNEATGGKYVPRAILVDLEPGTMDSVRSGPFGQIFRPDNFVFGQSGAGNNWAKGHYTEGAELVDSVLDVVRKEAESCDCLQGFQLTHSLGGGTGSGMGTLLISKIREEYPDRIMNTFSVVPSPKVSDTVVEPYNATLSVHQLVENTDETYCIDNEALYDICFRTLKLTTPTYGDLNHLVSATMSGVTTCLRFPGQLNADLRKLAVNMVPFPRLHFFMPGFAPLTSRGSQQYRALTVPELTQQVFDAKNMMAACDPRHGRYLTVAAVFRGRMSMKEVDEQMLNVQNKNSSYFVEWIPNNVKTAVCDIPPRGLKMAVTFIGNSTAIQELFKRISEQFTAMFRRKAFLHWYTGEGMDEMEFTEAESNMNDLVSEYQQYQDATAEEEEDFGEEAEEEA
UniProt P14136: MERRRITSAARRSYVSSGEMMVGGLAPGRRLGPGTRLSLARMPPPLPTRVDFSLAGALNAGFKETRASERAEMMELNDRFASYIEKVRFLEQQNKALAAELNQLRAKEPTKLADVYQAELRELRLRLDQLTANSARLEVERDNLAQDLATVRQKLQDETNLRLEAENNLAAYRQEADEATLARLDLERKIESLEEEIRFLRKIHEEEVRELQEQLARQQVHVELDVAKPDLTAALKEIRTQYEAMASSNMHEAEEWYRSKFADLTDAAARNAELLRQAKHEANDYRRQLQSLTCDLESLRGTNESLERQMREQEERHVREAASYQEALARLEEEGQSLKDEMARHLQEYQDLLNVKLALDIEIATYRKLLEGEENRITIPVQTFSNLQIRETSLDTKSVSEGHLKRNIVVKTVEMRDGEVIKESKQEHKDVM
UniProt P11182, residues 62-482: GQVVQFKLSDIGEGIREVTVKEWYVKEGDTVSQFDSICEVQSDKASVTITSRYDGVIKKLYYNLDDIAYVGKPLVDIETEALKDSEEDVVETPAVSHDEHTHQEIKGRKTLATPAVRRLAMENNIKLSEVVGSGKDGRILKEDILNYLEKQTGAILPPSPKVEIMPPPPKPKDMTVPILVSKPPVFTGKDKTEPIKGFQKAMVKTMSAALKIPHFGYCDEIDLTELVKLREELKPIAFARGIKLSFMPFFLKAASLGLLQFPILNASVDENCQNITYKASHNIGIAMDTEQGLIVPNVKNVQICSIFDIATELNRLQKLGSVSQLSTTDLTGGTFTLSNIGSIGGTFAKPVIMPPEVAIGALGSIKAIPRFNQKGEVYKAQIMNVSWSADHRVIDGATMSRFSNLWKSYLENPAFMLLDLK
UniProt P35611: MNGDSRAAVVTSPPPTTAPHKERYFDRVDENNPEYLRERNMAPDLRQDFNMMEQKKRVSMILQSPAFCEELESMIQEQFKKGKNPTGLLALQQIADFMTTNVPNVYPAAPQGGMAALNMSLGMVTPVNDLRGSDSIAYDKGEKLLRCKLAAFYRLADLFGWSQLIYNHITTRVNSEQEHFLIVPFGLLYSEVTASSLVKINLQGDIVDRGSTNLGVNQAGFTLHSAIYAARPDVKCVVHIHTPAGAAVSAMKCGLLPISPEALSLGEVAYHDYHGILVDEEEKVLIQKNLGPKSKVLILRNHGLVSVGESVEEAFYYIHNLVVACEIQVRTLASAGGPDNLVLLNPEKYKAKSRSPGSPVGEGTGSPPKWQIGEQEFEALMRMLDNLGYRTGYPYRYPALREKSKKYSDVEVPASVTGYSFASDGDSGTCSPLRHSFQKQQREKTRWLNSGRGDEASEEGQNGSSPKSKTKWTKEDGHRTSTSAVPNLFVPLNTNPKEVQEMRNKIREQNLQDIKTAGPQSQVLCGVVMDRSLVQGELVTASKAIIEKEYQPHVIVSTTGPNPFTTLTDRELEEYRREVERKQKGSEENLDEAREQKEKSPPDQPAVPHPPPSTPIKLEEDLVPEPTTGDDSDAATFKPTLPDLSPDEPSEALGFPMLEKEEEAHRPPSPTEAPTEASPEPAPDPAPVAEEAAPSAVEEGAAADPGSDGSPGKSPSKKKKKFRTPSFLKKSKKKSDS
UniProt P09471: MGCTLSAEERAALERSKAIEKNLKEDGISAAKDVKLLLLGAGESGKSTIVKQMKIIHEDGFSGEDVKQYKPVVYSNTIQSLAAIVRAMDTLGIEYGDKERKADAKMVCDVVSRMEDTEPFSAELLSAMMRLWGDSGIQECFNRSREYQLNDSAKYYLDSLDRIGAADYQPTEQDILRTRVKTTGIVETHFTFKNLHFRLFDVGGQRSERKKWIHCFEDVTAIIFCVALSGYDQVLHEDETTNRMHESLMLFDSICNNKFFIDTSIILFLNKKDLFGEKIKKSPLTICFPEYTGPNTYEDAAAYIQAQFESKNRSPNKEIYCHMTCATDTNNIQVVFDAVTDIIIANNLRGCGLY

B1: Pyruvate dehydrogenase E1 component subunit α, somatic form, mito (mouse) (protein, UniProt P35486 30-390)
chain: FANDATFEIKKCDLHRLEEGPPVTTVLTREDGLKYYRMMQTVRRMELKADQLYKQKIIRGFCHLCDGQEACCVGLEAGINPTDHLITAYRAHGFTFTRGLPVRAILAELTGRRGGCAKGKGGSMHMYAKNFYGGNGIVGAQVPLGAGIALACKYNGKDEVCLTLYGDGAANQGQIFEAYNMAALWKLPCIFICENNRYGMGTSVERAAASTDYYKRGDFIPGLRVDGMDILCVREATKFAAAYCRSGKGPILMELQTYRYHGHSMSDPGVSYRTREEIQEVRSKSDPIMLLKDRMVNSNLASVEELKEIDVEVRKEIEDAAQFATADPEPPLEELGYHIYSSDPPFEVRGANQWIKFKSVS
B2: Pyruvate dehydrogenase E1 component subunit β, mito (mouse) (protein, UniProt Q9D051 31-359)
chain: VQLTVREAINQGMDEELERDEKVFLLGEEVAQYDGAYKVSRGLWKKYGDKRIIDTPISEMGFAGIAVGAAMAGLRPICEFMTFNFSMQAIDQVINSAAKTYYMSAGLQPVPIVFRGPNGASAGVAAQHSQCFAAWYGHCPGLKVVSPWNSEDAKGLIKSAIRDNNPVVMLENELMYGVAFELPAEAQSKDFLIPIGKAKIERQGTHITVVAHSRPVGHCLEAAAVLSKEGIECEVINLRTIRPMDIEAIEASVMKTNHLVTVEGGWPQFGVGAEICARIMEGPAFNFLDAPAVRVTGADVPMPYAKVLEDNSVPQVKDIIFAVKKTLNI
B3: Prohibitin (mouse) (protein, UniProt P67778 1-272)
chain: MAAKVFESIGKFGLALAVAGGVVNSALYNVDAGHRAVIFDRFRGVQDIVVGEGTHFLIPWVQKPIIFDCRSRPRNVPVITGSKDLQNVNITLRILFRPVASQLPRIYTSIGEDYDERVLPSITTEILKSVVARFDAGELITQRELVSRQVSDDLTERAATFGLILDDVSLTHLTFGKEFTEAVEAKQVAQQEAERARFVVEKAEQQKKAAIISAEGDSKAAELIANSLATAGDGLIELRKLEAAEDIAYQLSRSRNITYLPAGQSVLLQLPQ
B4: Ras-related protein Rab-3A (mouse) (protein, UniProt P63011 1-220)
chain: MASATDSRYGQKESSDQNFDYMFKILIIGNSSVGKTSFLFRYADDSFTPAFVSTVGIDFKVKTIYRNDKRIKLQIWDTAGQERYRTITTAYYRGAMGFILMYDITNEESFNAVQDWSTQIKTYSWDNAQVLLVGNKCDMEDERVVSSERGRQLADHLGFEFFEASAKDNINVKQTFERLVDVICEKMSESLDTADPAVTGAKQGPQLTDQQAPPHQDCAC
B5: Sideroflexin-3 (mouse) (protein, UniProt Q91V61 1-321)
chain: MGDLPLNINIQEPRWDQSTFLGRARHFFTVTDPRNLLLSGEQLEASRNIVQNYRAGVATPGLTEDQLWRAKYVYDSAFHPDTGEKVVLIGRMSAQVPMNMTITGCMLTFYRKTPTVVFWQWVNQSFNAIVNYSNRSGDAPITVQQLGTAYVSATTGAVATALGLKSLTKHLPPLVGRFVPFAAVAAANCINIPLMRQRELQVGIPVTDEAGQRLGHSVTAAKQGIFQVVISRIGMAIPAMAIPPVIMNTLEKKDFLKRRPWLGAPLQVGLVGFCLVFATPLCCALFPQRSSIHVTRLEPELRAQIQAQNPSIDVVYYNKGL
B6: Thy-1 membrane glycoprotein (mouse) (protein, UniProt P01831 20-131)
chain: QKVTSLTACLVNQNLRLDCRHENNTKDNSIQHEFSLTREKRKHVLSGTLGIPEHTYRSRVTLSNQPYIKVLTLANFTTKDEGDYFCELQVSGANPMSSNKSISVYRDKLVKC
B7: 14-3-3 protein γ (protein, UniProt P61981 1-247)
chain: MVDREQLVQKARLAEQAERYDDMAAAMKNVTELNEPLSNEERNLLSVAYKNVVGARRSSWRVISSIEQKTSADGNEKKIEMVRAYREKIEKELEAVCQDVLSLLDNYLIKNCSETQYESKVFYLKMKGDYYRYLAEVATGEKRATVVESSEKAYSEAHEISKEHMQPTHPIRLGLALNYSVFYYEIQNAPEQACHLAKTAFDDAIAELDTLNEDSYKDSTLIMQLLRDNLTLWTSDQQDDDGGEGNN

These molecules were tested against Neuronal acetylcholine receptor subunit β2 (mouse) (mouse (endogenous in cortex)) (UniProt Q9ERK7) (assay: affinity purification with mass spectrometry; β2*-nAChRs captured on mAb295-coupled M270 Dynabeads from a Triton X-100 extract of pooled mouse cortex membranes after DSP cross-linking; eight-plex iTRAQ LC-MS/MS; β2+/+, β2+/-, α4+/-β2+/- and β2-/- mice given saline or nicotine (4 mg/kg/h, 10 d); proteins found in both biological replicates).

Molecule	binding
B1	binds
B2	binds
B3	binds
B4	binds
B5	binds
B6	binds

Each molecule was assayed against Neuronal acetylcholine receptor subunit β2 (human (endogenous in temporal cortex)) (UniProt P17787) (assay: affinity purification with mass spectrometry; β2*-nAChRs captured overnight at 4°C on mAb295-coupled M270 Dynabeads from a 0.6% Triton X-100 extract of postmortem human temporal cortex membranes; homogenate cross-linked with 1 mM DSP before extraction; eluted with 0.1 M NH4OH, 1 mM EDTA, pH 10; label-free LC-MS/MS (Orbitrap Elite); 18 samples from tobacco users and non-users, with or without a mood disorder).

Molecule	binding
V-type proton ATPase 116 kDa subunit a isoform 1 (from UniProt Q93050 1-837)	binds
Synaptotagmin-1 (from UniProt P21579 1-422)	binds
E3 ubiquitin-protein ligase TRIM21 (from UniProt P19474 1-475)	binds
Unconventional myosin-Va (from UniProt Q9Y4I1 1-1855)	binds
Ig γ-4 chain C region (from UniProt P01861-1)	binds
Plasma membrane calcium-transporting ATPase 2 (from UniProt Q01814 1-1243)	binds
Calcium/calmodulin-dependent protein kinase type II subunit α (from UniProt Q9UQM7 1-478)	binds
IgGFc-binding protein (from UniProt Q9Y6R7 24-5405)	binds
Syntaxin-1B (from UniProt P61266 1-288)	binds
Visinin-like protein 1 (from UniProt P62760 1-191)	binds
Syntaxin-binding protein 1 (from UniProt P61764 1-594)	binds
Glyceraldehyde-3-phosphate dehydrogenase (from UniProt P04406 1-335)	binds
Tubulin β4A chain (from UniProt P04350 1-444)	binds
Spectrin β chain, nonerythrocytic 1 (from UniProt Q01082 1-2364)	binds
Myosin-9 (from UniProt P35579 1-1960)	binds
Spectrin β chain, nonerythrocytic 2 (from UniProt O15020 1-2390)	binds
Tropomyosin α4 chain (from UniProt P67936 1-248)	binds
Tubulin β chain (from UniProt P07437 1-444)	binds
Neuronal acetylcholine receptor subunit α4 (from UniProt P43681 27-627)	binds
Tubulin α4A chain (from UniProt P68366 1-448)	binds
Gelsolin (from UniProt P06396 28-782)	binds
Ankyrin-2 (from UniProt Q01484 1-3957)	binds
Tubulin β2A chain (from UniProt Q13885 1-445)	binds
Elongation factor 1-α1 (from UniProt P68104 1-462)	binds
ATP synthase subunit β, mito (from UniProt P06576 48-529)	binds
α-Actinin-2 (from UniProt P35609 1-894)	binds

Molecule	binding
Ferritin heavy chain (from UniProt P02794 1-183)	binds
Sodium/potassium-transporting ATPase subunit α2 (from UniProt P50993 1-1020)	binds
Drebrin (from UniProt Q16643 1-649)	binds
Excitatory amino acid transporter 2 (from UniProt P43004 1-574)	binds
Serum albumin (from UniProt P02768 25-609)	binds
α-Actinin-4 (from UniProt O43707 1-911)	binds
Myosin light polypeptide 6 (from UniProt P60660 1-151)	binds
Vesicle-fusing ATPase (from UniProt P46459 1-744)	binds
Clathrin heavy chain 1 (from UniProt Q00610 1-1675)	binds
Glial fibrillary acidic protein (from UniProt P14136 1-432)	binds
ATP synthase subunit α, mito (from UniProt P25705 44-553)	binds
Myosin-10 (from UniProt P35580 1-1976)	binds
Calcium/calmodulin-dependent protein kinase type II subunit β (from UniProt Q13554 1-666)	binds
Myelin basic protein (from UniProt P02686-5)	binds
Sodium/potassium-transporting ATPase subunit α3 (from UniProt P13637 1-1013)	binds
Lipoamide acyltransferase of branched-chain α-keto acid dehydrogenase mito (from UniProt P11182 62-482)	binds
α-Actinin-1 (from UniProt P12814 1-892)	binds
Spectrin α chain, nonerythrocytic 1 (from UniProt Q13813 1-2472)	binds
14-3-3 protein ζ/δ (from UniProt P63104 1-245)	binds
ADP/ATP translocase 1 (from UniProt P12235 1-298)	binds
Guanine nucleotide-binding protein G(I)/G(S)/G(T) subunit β1 (from UniProt P62873 1-340)	binds
Tubulin β3 chain (from UniProt Q13509 1-450)	binds
α-Adducin (from UniProt P35611 1-737)	binds
V-type proton ATPase subunit d 1 (from UniProt P61421 1-351)	binds
Guanine nucleotide-binding protein G(o) subunit α (from UniProt P09471 1-354)	binds
B7	binds
